Values of other authors in patent US20130039856A1, “Products and Methods” (priority 2010, published 2013).
At least one structure is not confirmed: it was looked up by name or label, or the drawing left a doubt.

Tested on: 20-month-old mice
Conditions: cited from earlier work

In the case of `CO[C@H]1C[C@@H]2CC[C@@H](C)[C@@](O)(O2)C(=O)C(=O)N2CCCC[C@H]2C(=O)O[C@H]([C@H](C)C[C@@H]2CC[C@@H](O)[C@H](OC)C2)CC(=O)[C@H](C)/C=C(\C)[C@@H](O)[C@@H](OC)C(=O)[C@H](C)C[C@H](C)/C=C/C=C/C=C/1C` [rapamycin], the “extension of life expectancy” value is given as “up to 38%”.
